# Data as given in PubChem BioAssay AID1671195 (Yale University, 2021).
# Test: 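Regulators of LDL receptor activity judged by labelled LDL uptake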 (primary screen)
# Cell system: human Huh7 hepatoma cells
# Knock-down reagent: siRNA pool against human genes, 18 nM
# Duration: about 2 to 2.5 days of knockdown, then 8 h LDL uptake
# Conditions: DiI-labelled LDL at 30 µg/ml for 8 h, in lipoprotein-deficient serum medium
# Detection: 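Fluorescent LDL signal imaged in cells, scaled to the plate median, robust z-score for each replicate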
# Direction: robust z-score: higher = more LDL uptake after knockdown
# Hit rule: 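a gene counts as active if at least two replicate z-scores exceed ±2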
# Shown is a random part of about 22,000 reagents tested. About 1,510 of them (6.9%) were called active. 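Active includes knockdowns raising or lowering LDL uptake; positive z-scores mean more uptake, negative mean less.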 Reagents against one gene are numbered here.
target gene,reagent no.,"robust z-score, replicate 1","robust z-score, replicate 2","robust z-score, replicate 3",activity call
PRRG1 (proline rich and Gla domain 1),1,0.298,0.878,0.145,inactive
CD79A (CD79a molecule),1,-0.839,-0.732,0.233,inactive
TARS3 (threonyl-tRNA synthetase 3),1,-0.225,0.58,0.487,inactive
H2BC14 (H2B clustered histone 14),1,-0.455,0.0341,0.208,inactive
KRT17 (keratin 17),1,-1.15,-0.341,-0.854,inactive
ZNF615 (zinc finger protein 615),1,0.953,1,0.501,inactive
FIGLA (folliculogenesis specific bHLH transcription factor),1,0.22,0.0362,0.0226,inactive
LOC441329 (retired record),1,-1.11,-1.92,-1.66,inactive
LOC200491 (retired record),1,-0.154,-1.27,-0.823,inactive
HNRNPD (heterogeneous nuclear ribonucleoprotein D),1,0.49,0.039,0.0677,inactive
LOC402066 (retired record),1,-0.945,0.605,-0.33,inactive
OR5T2 (olfactory receptor family 5 subfamily T member 2),1,1.82,2,1.56,inactive
ARMS2 (age-related maculopathy susceptibility 2),1,0.159,0.331,1.28,inactive
SPATA4 (spermatogenesis associated 4),1,-0.984,-1.33,-1.31,inactive
AMPH (amphiphysin),1,1.23,0.0902,0.509,inactive
LOC440280 (retired record),1,0.554,0.0517,0.352,inactive
FAM227B (family with sequence similarity 227 member B),1,0.591,0.557,-0.202,inactive
WDR3 (WD repeat domain 3),1,0.24,0.787,0.326,inactive
FLJ41170 (retired record),1,-2.28,-2.2,-2.36,active
OR13C3 (olfactory receptor family 13 subfamily C member 3),1,0.0918,-0.162,-0.065,inactive
PLEKHM1P1,1,-0.986,-0.773,-0.861,inactive
BEGAIN (brain enriched guanylate kinase associated),1,-1.82,-0.377,0.376,inactive
BLOC1S1 (biogenesis of lysosomal organelles complex 1 subunit 1),1,-0.667,-0.321,-0.424,inactive
ZNF606 (zinc finger protein 606),1,0.55,0.136,0.108,inactive

Quoted from the entries so far (9 entries):
target gene,reagent no.,"robust z-score, replicate 1","robust z-score, replicate 2","robust z-score, replicate 3",activity call
LOC440280 (retired record),1,0.554,0.0517,0.352,inactive
FAM227B (family with sequence similarity 227 member B),1,0.591,0.557,-0.202,inactive
WDR3 (WD repeat domain 3),1,0.24,0.787,0.326,inactive
FLJ41170 (retired record),1,-2.28,-2.2,-2.36,active
OR13C3 (olfactory receptor family 13 subfamily C member 3),1,0.0918,-0.162,-0.065,inactive
PLEKHM1P1,1,-0.986,-0.773,-0.861,inactive
BEGAIN (brain enriched guanylate kinase associated),1,-1.82,-0.377,0.376,inactive
BLOC1S1 (biogenesis of lysosomal organelles complex 1 subunit 1),1,-0.667,-0.321,-0.424,inactive
ZNF606 (zinc finger protein 606),1,0.55,0.136,0.108,inactive

More records:
target gene,reagent no.,"robust z-score, replicate 1","robust z-score, replicate 2","robust z-score, replicate 3",activity call
LOC388480 (retired record),1,3.26,2.5,1.96,active
ARHGAP30 (Rho GTPase activating protein 30),1,-0.768,-0.167,-0.47,inactive
SPATA33 (spermatogenesis associated 33),1,0.153,2.2,1.59,inactive
"MRTO4 (MRT4 homolog, ribosome maturation factor)",1,-1.21,0.914,0.273,inactive
TEX44 (testis expressed 44),1,3.03,1.95,2.22,active
LOC389264 (retired record),1,-0.295,-0.158,-0.28,inactive
LOC390680 (retired record),1,0.173,-0.512,-0.415,inactive
MRPL47 (mitochondrial ribosomal protein L47),1,-0.206,-0.884,-1.07,inactive
COG8 (component of oligomeric golgi complex 8),1,0.718,0.274,1.09,inactive
PADI4 (peptidyl arginine deiminase 4),1,-0.0776,0.461,-0.133,inactive
CHST4 (carbohydrate sulfotransferase 4),1,-1.18,-1.04,-1.88,inactive
LOC440978 (retired record),1,-0.0375,0.000677,0.00396,inactive
IGFBP1 (insulin like growth factor binding protein 1),1,1.14,0.279,0.514,inactive
RHBDL2 (rhomboid like 2),1,-1.13,-1.05,-0.0148,inactive
CRYAA (crystallin alpha A),1,-0.082,0.403,0.301,inactive
ARHGAP44 (Rho GTPase activating protein 44),1,1.6,1.81,3.02,inactive
GEM (GTP binding protein overexpressed in skeletal muscle),1,-1.34,1.89,0.259,inactive
RNF146 (ring finger protein 146),1,0.459,0.513,0.292,inactive
NAALAD2 (N-acetylated alpha-linked acidic dipeptidase 2),1,1.24,1.79,1.71,inactive
LOC389329 (retired record),1,-1.32,-1.24,-1.24,inactive
DFFB (DNA fragmentation factor subunit beta),1,-0.125,-0.687,-0.819,inactive
GALNT11 (polypeptide N-acetylgalactosaminyltransferase 11),1,0.706,1.14,0.5,inactive
ITGB6 (integrin subunit beta 6),1,-0.886,-2.5,-2.25,active
LOC200493 (retired record),1,-0.454,-1.27,-1.01,inactive
TIMP2 (TIMP metallopeptidase inhibitor 2),1,-1.82,-1.33,0.95,inactive
ITIH3 (inter-alpha-trypsin inhibitor heavy chain 3),1,0.351,-0.252,0.105,inactive
CPLX2 (complexin 2),1,2.16,2.33,2.34,active
F5 (coagulation factor V),1,1.93,2.12,2.26,active
"MUSTN1 (musculoskeletal, embryonic nuclear protein 1)",1,2.82,3.22,3.08,active
KCTD14 (potassium channel tetramerization domain containing 14),1,-0.918,-0.868,-0.987,inactive
LIG3 (DNA ligase 3),1,-0.0772,-0.329,-1.26,inactive
RPL31P35 (ribosomal protein L31 pseudogene 35),1,-0.381,-0.242,-0.796,inactive
ZNF433 (zinc finger protein 433),1,1.46,1.51,1.58,inactive
KIAA2012,1,1.27,1.29,1.27,inactive
KIAA2012,2,2.21,0.398,0.753,inactive
"PCDHGB5 (protocadherin gamma subfamily B, 5)",1,-1.09,-1.14,-0.695,inactive
MKRN2 (makorin ring finger protein 2),1,0.0661,0.357,0.0732,inactive
KATNIP (katanin interacting protein),1,-1.34,-1.75,-1.15,inactive
EEF1E1 (eukaryotic translation elongation factor 1 epsilon 1),1,-0.136,-0.189,0.71,inactive
MTREX (Mtr4 exosome RNA helicase),1,-0.276,-0.534,-0.291,inactive
PLEKHA7 (pleckstrin homology domain containing A7),1,0.66,0.404,0.385,inactive
PLEKHA7 (pleckstrin homology domain containing A7),2,-1.7,-1.33,-1.7,inactive
CCL8 (C-C motif chemokine ligand 8),1,-0.612,-0.745,-0.372,inactive
FBRSL1 (fibrosin like 1),1,1.25,0.0648,0.202,inactive
